These results are taken from paper PMC10929182.

Protein sequences, listed by entry. Tags and fused reporters are not part of them.
UniProt P09874: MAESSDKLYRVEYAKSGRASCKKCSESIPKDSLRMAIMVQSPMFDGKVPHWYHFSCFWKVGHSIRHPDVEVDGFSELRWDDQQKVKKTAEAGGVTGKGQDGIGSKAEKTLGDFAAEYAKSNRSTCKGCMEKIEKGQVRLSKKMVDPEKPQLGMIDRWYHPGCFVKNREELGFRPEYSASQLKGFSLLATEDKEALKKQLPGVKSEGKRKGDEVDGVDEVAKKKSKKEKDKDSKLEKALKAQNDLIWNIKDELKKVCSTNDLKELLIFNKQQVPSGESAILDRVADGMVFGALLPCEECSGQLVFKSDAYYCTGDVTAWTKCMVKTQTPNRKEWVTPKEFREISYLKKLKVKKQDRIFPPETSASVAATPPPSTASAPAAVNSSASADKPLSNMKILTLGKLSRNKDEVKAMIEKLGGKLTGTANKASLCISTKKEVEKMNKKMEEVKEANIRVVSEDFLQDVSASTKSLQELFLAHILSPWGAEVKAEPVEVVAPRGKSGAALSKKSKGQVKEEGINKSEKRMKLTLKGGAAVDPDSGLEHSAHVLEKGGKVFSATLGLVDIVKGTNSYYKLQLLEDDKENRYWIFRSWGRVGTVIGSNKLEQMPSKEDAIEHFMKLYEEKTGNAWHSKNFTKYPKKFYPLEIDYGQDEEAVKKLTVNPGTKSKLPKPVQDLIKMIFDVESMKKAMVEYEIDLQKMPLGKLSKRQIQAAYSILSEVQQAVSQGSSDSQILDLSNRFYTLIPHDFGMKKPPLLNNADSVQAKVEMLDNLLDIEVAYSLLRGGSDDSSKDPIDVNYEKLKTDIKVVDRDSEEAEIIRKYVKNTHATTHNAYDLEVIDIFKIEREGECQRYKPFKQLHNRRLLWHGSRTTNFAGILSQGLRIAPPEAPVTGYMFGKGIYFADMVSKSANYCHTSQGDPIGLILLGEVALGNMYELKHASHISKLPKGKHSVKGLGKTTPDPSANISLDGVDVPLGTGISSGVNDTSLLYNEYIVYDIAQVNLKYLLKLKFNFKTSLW
UniProt P34058: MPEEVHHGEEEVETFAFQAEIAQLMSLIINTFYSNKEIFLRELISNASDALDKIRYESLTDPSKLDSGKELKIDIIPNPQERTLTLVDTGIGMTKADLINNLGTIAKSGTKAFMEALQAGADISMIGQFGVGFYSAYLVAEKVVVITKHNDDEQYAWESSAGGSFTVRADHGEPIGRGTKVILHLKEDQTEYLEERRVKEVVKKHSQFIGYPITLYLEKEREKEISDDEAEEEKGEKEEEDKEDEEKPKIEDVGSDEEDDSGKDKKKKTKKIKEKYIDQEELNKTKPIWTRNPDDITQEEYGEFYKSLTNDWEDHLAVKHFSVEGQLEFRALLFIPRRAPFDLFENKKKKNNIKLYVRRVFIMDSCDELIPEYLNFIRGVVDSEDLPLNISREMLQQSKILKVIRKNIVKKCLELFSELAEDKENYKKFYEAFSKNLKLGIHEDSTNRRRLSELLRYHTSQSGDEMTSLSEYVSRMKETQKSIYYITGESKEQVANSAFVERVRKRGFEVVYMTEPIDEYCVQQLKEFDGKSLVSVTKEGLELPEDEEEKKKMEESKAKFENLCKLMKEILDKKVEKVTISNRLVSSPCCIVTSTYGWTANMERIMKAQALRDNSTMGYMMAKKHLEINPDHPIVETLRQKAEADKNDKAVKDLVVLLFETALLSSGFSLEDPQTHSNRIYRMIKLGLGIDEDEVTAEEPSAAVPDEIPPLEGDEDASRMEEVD

In this assay the target is PARP1 overexpressed from adenovirus (Ad-PARP1) in neonatal rat cardiomyocytes (UniProt P09874). As to the kind of experiment: affinity purification with mass spectrometry; NRCMs infected with Ad-PARP1 for 48 h; protein extracts immunoprecipitated with IgG or PARP1 antibody; eluted proteins measured by LC-MS/MS.

Results are given in words; binding and its absence hold for the method and conditions named. In cells and extracts the contact can be indirect. These calls come from enrichment with a bait or labelling near it, and not all partners need be listed.

In the case of “Heat Shock Protein 90 Alpha Family Class B Member 1 (HSP90AB1), endogenous in neonatal rat cardiomyocytes (from UniProt P34058 1-724)”, the binding entry is “binds”.
